# Assay results from the odorant receptor screen of Mainland et al. (2015).
# Where “and” joins values, the source holds several entries; their conditions need not be identical. Equal values may be shown once. The list shows a part of the results. Each value is one well over the wells without odorant, computed here; the data are noisy.
# System: OR13D1 clone 1484
# Experiment: odorant receptor activation (CRE luciferase / Renilla) (fold of no-odor wells); higher = more activation
# Conditions: 100 µM
row,SMILES,odorant receptor activation
1,CCCCCC(=O)O [caproic acid],1.01
2,C=C(C)C1CC=CCC1 (configuration not stated) [r-limonene],0.859 and 1.02 and 0.942
3,"CC1CCC(C(C)C)C(O)C1 (single isomer, unassigned; (+)) [(+)-menthol]",0.954
4,O=C1CCCCC1 [Cyclohexanone],0.816 and 0.815
5,CC(=O)c1ccccc1 [acetophenone],1.2 and 0.625
6,COC(=O)c1ccccc1 [methyl benzoate],1.38 and 0.911
7,O=CCc1ccccc1 [phenyl acetaldehyde],0.978
8,C=CC(C)(O)CCC=C(C)C (configuration not stated) [linalool],1.01
9,CCCCO [1-butanol],1.03
10,CC/C=C\CCO [cis-3-hexen-1-ol],0.959
11,CC1=CCC(C(C)(C)O)CC1 (configuration not stated) [terpineol],0.695
12,CC(C)CCC(=O)O [4-methylvaleric acid],0.815
13,"CC1CCC(C(C)C)C(O)C1 (single isomer, unassigned; (-)) [(-)-menthol]",3.04
14,CC(C)(C)c1ccc(CCC=O)cc1 [bourgeonal],0.857
15,CCCCCCCCOC(C)=O [octyl acetate],0.962
16,CC1=NC(C)SC1C (configuration not stated),1 and 1.26
17,CC12C=CCC1C1CCC3CC(=O)CCC3(C)C1CC2 (configuration not stated) [androstenone],0.871
18,C=C(C)C1CC=C(C)C(=O)C1 (configuration not stated) [r-carvone],0.837
19,CC12C=CCC1C1CCC3=CC(=O)CCC3(C)C1CC2 (configuration not stated) [androstadienone],1.12 and 1.27
20,CCCCCCCOC(C)=O [heptyl acetate],1.03 and 1.31
21,CC(C)C=O [isobutyraldehyde],1.18 and 1.21
22,CC=Cc1ccc(O)c(OC)c1 [isoeugenol],1.03 and 2.27
23,CCCC(=O)O [butyric acid],1.05
24,CCCCCC(C)=O [2-heptanone],1.09 and 0.746
25,CCCCCCCC=CC=O [2-decenal],1.33

# System: OR13F1 F18S/M101V/V134I/I270T clone 1097
# Experiment: as above
# Conditions: 100 µM
row,SMILES,odorant receptor activation
1,CCCCCC(=O)O [caproic acid],1.12
2,C=C(C)C1CC=CCC1 (configuration not stated) [r-limonene],1.32 and 1.21
3,"CC1CCC(C(C)C)C(O)C1 (single isomer, unassigned; (+)) [(+)-menthol]",2.45
4,O=C1CCCCC1 [Cyclohexanone],0.946
5,CC(=O)c1ccccc1 [acetophenone],1.16
6,COC(=O)c1ccccc1 [methyl benzoate],1.62
7,O=CCc1ccccc1 [phenyl acetaldehyde],1.48
8,C=CC(C)(O)CCC=C(C)C (configuration not stated) [linalool],1.23
9,CCCCO [1-butanol],2.05
10,CC/C=C\CCO [cis-3-hexen-1-ol],0.856
11,CC1=CCC(C(C)(C)O)CC1 (configuration not stated) [terpineol],1.17
12,CC(C)CCC(=O)O [4-methylvaleric acid],1.17
13,CC1COCc2cc3c(cc21)C(C)(C)C(C)C3(C)C (configuration not stated) [galaxolide],6
14,"CC1CCC(C(C)C)C(O)C1 (single isomer, unassigned; (-)) [(-)-menthol]",1.82
15,CC(C)(C)c1ccc(CCC=O)cc1 [bourgeonal],0.992
16,CCCCCCCCOC(C)=O [octyl acetate],1.27
17,CC1=NC(C)SC1C (configuration not stated),0.564
18,CC12C=CCC1C1CCC3CC(=O)CCC3(C)C1CC2 (configuration not stated) [androstenone],1.26
19,C=C(C)C1CC=C(C)C(=O)C1 (configuration not stated) [r-carvone],1.11
20,CC12C=CCC1C1CCC3=CC(=O)CCC3(C)C1CC2 (configuration not stated) [androstadienone],3.95
21,CCCCCCCOC(C)=O [heptyl acetate],1.28
22,CC(C)C=O [isobutyraldehyde],1.65
23,CC=Cc1ccc(O)c(OC)c1 [isoeugenol],2.47
24,CCCC(=O)O [butyric acid],1.28
25,CCCCCC(C)=O [2-heptanone],0.635
26,CCCCCCC=O [heptaldehyde],1.57 and 3.24
27,CCCCCCCC=CC=O [2-decenal],2.01
